# Laboratory results taken from the supplement of paper PMC8728848.
# The list shows a part of the results.
# What was measured:
# Experiment in all cases: glycan array binding signal (z-score within array); higher = stronger binding
# Conditions in all cases: glycan notation: IUPAC condensed, linker removed
# [1] = target: GalNAc(b1-4)GlcNAc(b1-2)Man
# Method in brief: (§1)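 Arrays were curated from the Consortium for Functional Glycomics database, 3228 in total, and kept only where the protein sequence was available. Binding is expressed as a within-array Z-score. This score was averaged across arrays of the same protein sequence at different concentrations or buffers and across linkers, and negative values can be read as non-binding.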
# [2] = target: GalNAc(b1-4)GlcNAc(b1-2)Man(a1-3)[GalNAc(b1-4)GlcNAc(b1-2)Man(a1-6)]Man(b1-4)GlcNAc(b1-4)GlcNAc
# Method in brief: as §1
# [3] = target: GalNAc(b1-4)GlcNAc(b1-3)GalNAc(b1-4)GlcNAc
# Method in brief: as §1
# GalNAc(b1-4)GlcNAc6S = target: GalNAc(b1-4)GlcNAc6S
# Method in brief: as §1
# GalNAc(b1-6)GalNAc = target: GalNAc(b1-6)GalNAc
# Method in brief: as §1
# GalNAc3S(b1-4)GlcNAc = target: GalNAc3S(b1-4)GlcNAc
# Method in brief: as §1
# GalNAc3S(b1-4)GlcNAc3S = target: GalNAc3S(b1-4)GlcNAc3S
# Method in brief: as §1
# [4] = target: GalNAc3S(b1-4)[Fuc(a1-3)]GlcNAc
# Method in brief: as §1
# GalNAc4S6S(b1-4)GlcNAc = target: GalNAc4S6S(b1-4)GlcNAc
# Method in brief: as §1
# GalNAc6S(b1-4)GlcNAc = target: GalNAc6S(b1-4)GlcNAc
# Method in brief: as §1
# Glc(a1-4)Glc = target: Glc(a1-4)Glc
# Method in brief: as §1
# [5] = target: Glc(a1-4)Glc(a1-4)Glc(a1-4)Glc
# Method in brief: as §1
# Glc(a1-6)Glc(a1-6)Glc = target: Glc(a1-6)Glc(a1-6)Glc
# Method in brief: as §1
# [6] = target: Glc(a1-6)Glc(a1-6)Glc(a1-6)Glc
# Method in brief: as §1
# Glc(b1-4)Glc = target: Glc(b1-4)Glc
# Method in brief: as §1
# Glc(b1-6)Glc = target: Glc(b1-6)Glc
# Method in brief: as §1
# GlcA(b1-3)Gal = target: GlcA(b1-3)Gal
# Method in brief: as §1
# GlcA(b1-3)GlcNAc = target: GlcA(b1-3)GlcNAc
# Method in brief: as §1
# GlcA(b1-6)Gal = target: GlcA(b1-6)Gal
# Method in brief: as §1
# [7] = target: GlcA3S(b1-3)Gal(b1-4)GlcNAc(b1-2)Man
# Method in brief: as §1
# [8] = target: GlcA3S(b1-3)Gal(b1-4)GlcNAc(b1-3)Gal(b1-4)Glc
# Method in brief: as §1
# [9] = target: GlcNAc(a1-3)Gal(b1-4)GlcNAc
# Method in brief: as §1
# [10] = target: GlcNAc(a1-4)Gal(b1-3)GlcNAc
# Method in brief: as §1
# [11] = target: GlcNAc(a1-4)Gal(b1-4)GalNAc
# Method in brief: as §1
# [12] = target: GlcNAc(a1-4)Gal(b1-4)GlcNAc
# Method in brief: as §1
# [13] = target: GlcNAc(a1-4)Gal(b1-4)GlcNAc(b1-3)Gal(b1-4)Glc
# Method in brief: as §1
# [14] = target: GlcNAc(a1-4)Gal(b1-4)GlcNAc(b1-3)Gal(b1-4)GlcNAc
# Method in brief: as §1
# [15] = target: GlcNAc(a1-4)Gal(b1-4)GlcNAc(b1-3)Gal(b1-4)GlcNAc(b1-3)Gal(b1-4)GlcNAc
# Method in brief: as §1
# [16] = target: GlcNAc(a1-4)Gal(b1-4)GlcNAc(b1-3)Gal(b1-4)[Fuc(a1-3)]GlcNAc(b1-3)Gal(b1-4)[Fuc(a1-3)]GlcNAc
# Method in brief: as §1
# [17] = target: GlcNAc(a1-6)Gal(b1-4)GlcNAc
# Method in brief: as §1
# [18] = target: GlcNAc(b1-2)Gal(b1-3)GalNAc
# Method in brief: as §1
# [19] = target: GlcNAc(b1-2)Man(a1-3)[GlcNAc(b1-2)Man(a1-6)]Man(b1-4)GlcNAc(b1-4)GlcNAc
# Method in brief: as §1
# [20] = target: GlcNAc(b1-2)Man(a1-3)[GlcNAc(b1-2)Man(a1-6)]Man(b1-4)GlcNAc(b1-4)[Fuc(a1-6)]GlcNAc
# Method in brief: as §1
# [21] = target: GlcNAc(b1-2)Man(a1-3)[GlcNAc(b1-4)][GlcNAc(b1-2)Man(a1-6)]Man(b1-4)GlcNAc(b1-4)GlcNAc
# Method in brief: as §1
# [22] = target: GlcNAc(b1-2)Man(a1-3)[GlcNAc(b1-4)][GlcNAc(b1-2)Man(a1-6)]Man(b1-4)GlcNAc(b1-4)[Fuc(a1-6)]GlcNAc
# Method in brief: as §1
# [23] = target: GlcNAc(b1-2)[GlcNAc(b1-4)]Man(a1-3)[GlcNAc(b1-2)Man(a1-6)]Man(b1-4)GlcNAc(b1-4)GlcNAc
# Method in brief: as §1
# [24] = target: GlcNAc(b1-2)[GlcNAc(b1-4)]Man(a1-3)[GlcNAc(b1-4)][GlcNAc(b1-2)Man(a1-6)]Man(b1-4)GlcNAc(b1-4)GlcNAc
# Method in brief: as §1
binder,measurement,setting,value
RobpsCRA (Robinia pseudoacacia) (protein) IKGGYWYSGSGLAVSDINPSHFTHLFCAFADLDPNTNKLTISSSNAAAFSTFTQTVRAKNPSVKTLLSIGGGGGRALAAVFANMASQASRRKSFIDSSIQLARRNNFHGLDLDWEYPSSDIDKTNFASLIREWRAAVATESSTSGTPALLLSAAVGGSDQITPLKYYPGEAIANNLDWVNVMTYDLYTSDSYPTLTQPPAPLFYPRGIFSADEGITKWIQSGVPESKLALGLPFYGFKWRLSDPNNHGLFAPATQGLGAVKYKDIVNTGGQVEFDSTYVTNYCFKGTDWYGYDDTQSISAKVAYAKQRGLFGYFAWHIEQDSNWALS,glycan array binding signal (z-score),[1],-0.38
same,glycan array binding signal (z-score),[2],-0.025
same,glycan array binding signal (z-score),[3],0.089
same,glycan array binding signal (z-score),GalNAc(b1-4)GlcNAc6S,0.627
same,glycan array binding signal (z-score),GalNAc(b1-6)GalNAc,-0.149
same,glycan array binding signal (z-score),GalNAc3S(b1-4)GlcNAc,-0.237
same,glycan array binding signal (z-score),GalNAc3S(b1-4)GlcNAc3S,-0.008
same,glycan array binding signal (z-score),[4],-0.113
same,glycan array binding signal (z-score),GalNAc4S6S(b1-4)GlcNAc,-0.31
same,glycan array binding signal (z-score),GalNAc6S(b1-4)GlcNAc,0.159
same,glycan array binding signal (z-score),Glc(a1-4)Glc,-0.419
same,glycan array binding signal (z-score),[5],-0.199
same,glycan array binding signal (z-score),Glc(a1-6)Glc(a1-6)Glc,-0.578
same,glycan array binding signal (z-score),[6],-0.603
same,glycan array binding signal (z-score),Glc(b1-4)Glc,-0.515
same,glycan array binding signal (z-score),Glc(b1-6)Glc,-0.652
same,glycan array binding signal (z-score),GlcA(b1-3)Gal,0.749
same,glycan array binding signal (z-score),GlcA(b1-3)GlcNAc,-0.082
same,glycan array binding signal (z-score),GlcA(b1-6)Gal,0.348
same,glycan array binding signal (z-score),[7],-0.142
same,glycan array binding signal (z-score),[8],2.45
same,glycan array binding signal (z-score),[9],-0.279
same,glycan array binding signal (z-score),[10],-0.431
same,glycan array binding signal (z-score),[11],0.246
same,glycan array binding signal (z-score),[12],-0.324
same,glycan array binding signal (z-score),[13],-0.307
same,glycan array binding signal (z-score),[14],1.54
same,glycan array binding signal (z-score),[15],1.21
same,glycan array binding signal (z-score),[16],0.964
same,glycan array binding signal (z-score),[17],0.412
same,glycan array binding signal (z-score),[18],0.183
same,glycan array binding signal (z-score),[19],-0.152
same,glycan array binding signal (z-score),[20],-0.299
same,glycan array binding signal (z-score),[21],-0.359
same,glycan array binding signal (z-score),[22],-0.721
same,glycan array binding signal (z-score),[23],0.427
same,glycan array binding signal (z-score),[24],-0.505

# Some of the entries so far, with bars between the fields:
binder | measurement | setting | value
RobpsCRA (Robinia pseudoacacia) (protein) IKGGYWYSGSGLAVSDINPSHFTHLFCAFADLDPNTNKLTISSSNAAAFSTFTQTVRAKNPSVKTLLSIGGGGGRALAAVFANMASQASRRKSFIDSSIQLARRNNFHGLDLDWEYPSSDIDKTNFASLIREWRAAVATESSTSGTPALLLSAAVGGSDQITPLKYYPGEAIANNLDWVNVMTYDLYTSDSYPTLTQPPAPLFYPRGIFSADEGITKWIQSGVPESKLALGLPFYGFKWRLSDPNNHGLFAPATQGLGAVKYKDIVNTGGQVEFDSTYVTNYCFKGTDWYGYDDTQSISAKVAYAKQRGLFGYFAWHIEQDSNWALS | glycan array binding signal (z-score) | GlcA(b1-6)Gal | 0.348
same | glycan array binding signal (z-score) | [7] | -0.142
